Results from PubChem BioAssay AID504842 (National Center for Advancing Translational Sciences (NCATS), 2011).
Among all 330,000 compounds or so, about 100 (0.03%) were called active. The shares of active, inactive and inconclusive entries below differ from those in the screen. Calls come from the whole dose curve; as a rule, active = well fitted inhibition curve with a large enough effect; inconclusive = small, poorly fitted or top-dose-only effect; inactive = flat fitted curve, though single readings scatter. Potencies beside an inconclusive call are fits to weak or partial responses and may not hold up.

Test system: Chaperonin Mm-Cpn (Methanococcus maripaludis)
Experiment: Inhibitors of TCP-1 ring complex (TRiC) of Methanococcus maripaludis (MmCpn): qHTS; note: nearly all actives have a fitted effect of over 80% in size;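 for Potency: enzyme at 25 nM with ATP substrate at 10 µM during the reaction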
Settings: purified Mm-Cpn ATPase, ADP Transcreener TR-FRET; activity, negative = inhibition: at the top concentration
Outline: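 TR-FRET (320 nm excitation; 590 and 665 nm emission) reports ADP made from 10 uM ATP by 25 nM enzyme; compounds were preincubated 10 min, reaction run 30 min, both at 37°C.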
% is set by controls: 0 for no effect and ±100 for the full control effect; potency is the fitted concentration of half-maximal effect.

Q: How did the Potency turn out when `O=C1C2CCCN2C(=O)N1CCCN1CCN(c2cccc(Br)c2)CC1` (configuration not stated) was run?
A: The Potency was inconclusive: 282 µM [inhibitor, partial curve, poor fit].

Q: Which Potency does the source give for `CNCCCOc1cccc(Oc2ccccc2)c1` here?
A: The Potency was inconclusive: 25.1 µM [inhibitor, single point].

Q: How did the Potency turn out when `Cc1cc(-c2ccc(Br)s2)nc(-n2cccc2)n1` was run?
A: The Potency was inconclusive: 316 µM [inhibitor, partial curve, poor fit].

Q: How did the “activity, negative = inhibition” value turn out when `COc1ccc(/C=C2\SC(N3CCCCC3)=NC2=O)cc1OC` was run?
A: Its value is inactive: -12.5%.

Q: How did the Potency turn out when `COc1cccc(C2CC(c3cccs3)=NN2C(=S)Nc2ccccc2)c1OC` (configuration not stated) was run?
A: The Potency was inconclusive: 89.1 µM [inhibitor, partial curve, poor fit].

Q: `CCc1ccc(N2C(=O)CC(N(CC3CCCO3)C(=O)/C=C/C(=O)O)C2=O)cc1` (configuration not stated) was tested. Which Potency did it give?
A: Its Potency is inconclusive: 100 µM [inhibitor, single point].

Q: For `CC1CCCN(CC(O)COCc2ccc3c(c2)OCO3)C1` (configuration not stated), which Potency is on record?
A: Its Potency is inconclusive: 20 µM [inhibitor, single point].

Q: How did the Potency turn out when `Cc1coc2c1c(C)cc1oc(=O)c(CC(=O)NCC(=O)O)c(C)c12` was run?
A: Its Potency is inconclusive: 1120 µM [inhibitor, partial curve, poor fit].

Q: Which Potency does the source give for `CC(C)(C)OC(=O)N1CCCC(C(=O)Nc2ccc(C(=O)N3CCOCC3)cc2)C1` (configuration not stated) here?
A: Its Potency is inconclusive: 22.4 µM [inhibitor, single point].

Q: `CC1=C(C(=O)Nc2cc(C)ccn2)C(c2ccc(C)cc2)C2=C(CCCC2=O)N1` (configuration not stated) was tested. Which “activity, negative = inhibition” value did it give?
A: Its value is inactive: 1.76%.

Q: Which Potency does the source give for `COc1ccc(C2(C)NC(=O)N(CC(=O)NC3CC3)C2=O)cc1` (configuration not stated) here?
A: The Potency was inconclusive: 14.1 µM [inhibitor, single point].

Q: Which “activity, negative = inhibition” value does the source give for `CS(=O)(=O)c1ccc(N)c(SSc2cc(S(C)(=O)=O)ccc2N)c1` here?
A: The value was inactive: -5.68%.

Q: With `CC(=O)c1c(C)nc2sc3c(=N)n(N)cnc3c2c1-c1ccc(Cl)cc1` as the molecule, how does the Potency read?
A: Its Potency is inconclusive: 17.8 µM [inhibitor, single point].

Q: With `Cn1c2c(c(=O)n3ncnc13)CCCC2` as the molecule, how does the Potency read?
A: Its Potency is inconclusive: 22.4 µM [inhibitor, single point].

Q: How did the Potency turn out when `Cc1ccc(CC(=O)NCCCc2ccccc2)cc1` was run?
A: The Potency was inconclusive: 22.4 µM [inhibitor, single point].

Q: `CCOC(=O)C1=C(C)N2C(=C(C#N)[C@@H]1c1ccc(C(=O)OC)cc1)SC[C@@]2(O)C(C)(C)C` was tested. Which Potency did it give?
A: Its Potency is inconclusive: 100 µM [inhibitor, single point].

Q: `COC(=O)CN1C(=O)[C@H]2[C@@H](C3CC3)N3C(=O)CN(Cc4ccccn4)C(=O)[C@@]3(Cc3ccccc3)[C@H]2C1=O` was tested. Which “activity, negative = inhibition” value did it give?
A: The value was inactive: 2.19%.

Q: For `Cc1cc2cc(CNC(=S)NCc3ccccc3)ccc2n1C`, which Potency is on record?
A: The Potency was inconclusive: 100 µM [inhibitor, single point].

Q: Which Potency does the source give for `CC1C(=O)N2CCCc3cc(S(=O)(=O)NCc4ccc(F)cc4)cc1c32` (configuration not stated) here?
A: The Potency was inconclusive: 22.4 µM [inhibitor, single point].

Q: With `COc1ccccc1-n1c(SCC(=O)NC2CCS(=O)(=O)C2)nc2ccccc2c1=O` (configuration not stated) as the molecule, how does the “activity, negative = inhibition” value read?
A: The value was inactive: -0.401%.

Q: For `Cc1[nH]n(-c2ccccc2)c(=O)c1C(c1cccc([N+](=O)[O-])c1O)c1c(C)[nH]n(-c2ccccc2)c1=O`, which “activity, negative = inhibition” value is on record?
A: The value was inactive: -1.77%.

Q: How did the Potency turn out when `CCOC(=O)C1=C(C)OC(N)=C(C#N)C1c1cc2ccccc2nc1N1CCCCC1` (configuration not stated) was run?
A: Its Potency is inconclusive: 1410 µM [inhibitor, partial curve, poor fit].

Q: How did the “activity, negative = inhibition” value turn out when `C=CCN=C1N[C@@H](c2ccc(Br)cc2)C(C(=O)OC)=C(C)N1Cc1ccccc1` was run?
A: The value was inactive: -0.366%.

Q: `COC(=O)C1=C(C)N(C)C(=O)NC1c1ccc(O)c(OC)c1` (configuration not stated) was tested. Which Potency did it give?
A: The Potency was inconclusive: 25.1 µM [inhibitor, partial curve, poor fit].

Q: `O=C(COC(=O)c1ccccn1)Nc1nc(-c2ccccc2)cs1` was tested. Which Potency did it give?
A: Its Potency is inconclusive: 100 µM [inhibitor, single point].

Q: With `N#Cc1ccc(Oc2ccc(-c3cnc4ccccc4n3)cc2)cc1C#N` as the molecule, how does the Potency read?
A: The Potency was inconclusive: 178 µM [inhibitor, partial curve].

Q: Which “activity, negative = inhibition” value does the source give for `O=C(O)CN1C(=O)/C(=C/c2ccc(N3CCCCC3)o2)SC1=S` here?
A: Its value is inactive: -2.89%.

Q: Which Potency does the source give for `O=C(Nc1nc2c(s1)CN(Cc1ccccc1)CC2)c1cccc(S(=O)(=O)N2CCc3ccccc32)c1` here?
A: Its Potency is inconclusive: 50.1 µM [inhibitor, partial curve, poor fit].

Q: `O=C(NNC(=O)c1ccccc1Br)c1ccncc1` was tested. Which Potency did it give?
A: Its Potency is inconclusive: 112 µM [inhibitor, partial curve, poor fit].

Q: `CCOc1ccc2ccccc2c1CNCCc1ccc(S(N)(=O)=O)cc1` was tested. Which Potency did it give?
A: The Potency was inconclusive: 12.6 µM [inhibitor, single point].

Q: With `O=C(N/N=C/c1ccc(Cl)cc1)c1nc2ccc([N+](=O)[O-])cc2c(=O)[nH]1` as the molecule, how does the Potency read?
A: The Potency was inconclusive: 100 µM [inhibitor, single point].

Q: For `Cc1nn(C)c(C)c1C(C)NC(=O)c1cc(COc2cncc(Cl)c2)on1` (configuration not stated), which Potency is on record?
A: Its Potency is inconclusive: 22.4 µM [inhibitor, single point].

Q: Which Potency does the source give for `CCC(=O)N1CCc2cc(S(=O)(=O)CCC(=O)NCc3ccccc3OC)ccc21` here?
A: Its Potency is inconclusive: 22.4 µM [inhibitor, single point].

Q: With `Cc1ccsc1/C=N/NC(=S)NCCc1ccccc1` as the molecule, how does the Potency read?
A: The Potency was inconclusive: 25.1 µM [inhibitor, single point].

Q: For `COc1ccccc1NS(=O)(=O)c1ccc(NC(C)=O)cc1`, which “activity, negative = inhibition” value is on record?
A: The value was inactive: 0.371%.

Q: Which “activity, negative = inhibition” value does the source give for `Fc1ccccc1CN1CCN(c2ncccn2)CC1` here?
A: The value was inactive: -0.703%.

Q: Which Potency does the source give for `COc1cccc(-c2sc3ccc(OC)cc3c2C#CC(C)(C)O)c1` here?
A: The Potency was inconclusive: 112 µM [inhibitor, partial curve, poor fit].

Q: How did the Potency turn out when `Cc1nc(-c2ccccc2)sc1C(=O)CSc1ccc(F)cc1` was run?
A: Its Potency is inconclusive: 224 µM [inhibitor, partial curve, poor fit].

Q: Which Potency does the source give for `Cc1ccc(NC(=S)N2CCC(N(C)CC3CCCO3)CC2)cc1C` (configuration not stated) here?
A: Its Potency is inconclusive: 20 µM [inhibitor, single point].

Q: Which “activity, negative = inhibition” value does the source give for `Cc1cc(C)c(C#N)c(SCCS(=O)(=O)Cc2ccc(Cl)cc2)n1` here?
A: The value was inactive: -4.77%.

Q: With `Cc1ccc(OCCn2cc(C(=S)N3CCCC3)c3ccccc32)cc1C` as the molecule, how does the Potency read?
A: Its Potency is inconclusive: 112 µM [inhibitor, partial curve, poor fit].

Q: How did the “activity, negative = inhibition” value turn out when `Cc1nn(C)c(C)c1S(=O)(=O)N1CCCC(C(=O)N2CCN(c3ccc(Cl)cc3)CC2)C1` (configuration not stated) was run?
A: Its value is inactive: -0.85%.
